Source: the supplement of paper PMC8256030
Several values for one entry are separate records, joined by “and”; a condition that tells them apart may be missing. Identical values can stand only once. The list shows a part of the results. This data set is noisy: repeats of one test often differ as much as different tests do.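 HEK293T cells were given each compound shortly before transfection with a reporter in which red mCherry is followed by the SARS-CoV-2 frameshift element and then GFP in the −1 frame, so GFP appears only after frameshifting.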

test system: SARS-CoV-2 -1 PRF reporter mCherry-FSE-GFP(-1); test: percent effect, decrease of GFP/mCherry ratio (-1 PRF reporter) relative to controls; higher = stronger frameshift inhibition; conditions: 10 µM; 24 h; HEK293T

Compound | percent effect
COCC(=O)O[C@]1(CCN(C)CCCc2nc3ccccc3[nH]2)CCc2cc(F)ccc2[C@@H]1C(C)C [mibefradil] | -0.39%
O=P1(NCCCl)OCCCN1CCCl (configuration not stated) [ifosfamide] | -2.03% and -3.3%
Nc1cc(Cl)c(N=C2NCCN2)c(Cl)c1 [apraclonidine] | -8.38%
CCN(CC)C(=O)c1cccnc1 [nikethamide] | 1.81%
C[C@](N)(Cc1ccc(O)cc1)C(=O)O [metirosine] | -3.41%
NC(=O)c1ccc(F)c2c1C[C@@H](N(C1CCC1)C1CCC1)CO2 [robalzotan] | 0.466%
Cn1nnnc1SCC1=C(C(=O)O)N2C(=O)[C@@H](NC(=O)[C@H](OC=O)c3ccccc3)[C@H]2SC1 | 0.947%
CC1=C(CC(=O)O)c2cc(F)ccc2/C1=C\c1ccc([S+](C)[O-])cc1 (configuration not stated) [sulindac] | -2.43%
C[N+](C)(C)CC(O)CC(=O)[O-] (configuration not stated) | 7.28%
CC(=O)Oc1cccc(C)c1 | -5.51%
C[C@@H]1C[C@H]2[C@@H]3C[C@H](F)C4=CC(=O)C=C[C@]4(C)[C@H]3[C@@H](O)C[C@]2(C)[C@@]1(O)C(=O)CO [Paramethasone] | -3.5%
C[C@H](CCC(=O)NCCS(=O)(=O)O)[C@H]1CC[C@H]2[C@@H]3[C@H](O)C[C@@H]4C[C@H](O)CC[C@]4(C)[C@H]3C[C@H](O)[C@]12C [Taurocholic acid] | -5.18%
